Laboratory results: the supplement of paper PMC10338343
± gives the standard deviation. This is a selection; strong and weak results do not stand in their true shares. The uncertainty is large for many entries.

The sequences below were run on EfPiwi piRISC loaded with piRNA #1 (26 nt) (assay: pre-steady-state target cleavage rate (min^-1); guide: piRNA #1 5'p-UGAGGUAGUAGGUUGUAUAGUAUCCA; MIWI and MILI are mouse PIWI proteins and EfPiwi is from a freshwater sponge; tags in brackets are library labels; higher = faster piRNA-guided slicing of the target). Conditions: auxiliary factor: 500 nM Ephydatia muelleri Gtsf1.
Procedure, shortened: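 With or without 500 nM GTSF1 partner protein, 1 nM active affinity-purified piRISC carrying one synthetic guide was mixed with 0.1 nM transcribed, DNA-blocked target RNA library in HEPES–potassium acetate buffer at 33 °C for 0–8 or 0–960 min. Uncleaved targets were sequenced and normalised to depth and to weakly complementary targets, three trials were pooled, and k3 was capped at 0.0001 min^-1. The pre-steady-state cleavage rate came from a burst-and-steady-state fit.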

| Sequence | pre-steady-state target cleavage rate |
| --- | --- |
| GGAGACCAUAGCUAUACAACCUACUACCUCA | 0.0108 ± 0.0051 |
| GGAGACCAUACUAUACAACCUACAAGCUCA | 0.00268 ± 0.0039 |
| GGAGACGAUACUAUACAACCUACUUGCUCA | 0.00371 ± 0.0014 |
| GGAGACCAUACUAUAGUUCCUACUACCUCA | 0.000301 ± 0.0059 |
| GGAGAGGAAUACUAUACAACCUACUACCUCA | 0.0974 ± 0.034 |
| GGAGACCUAACUAUACAACCUACUACGUGA | 0.0069 ± 0.0046 |
| GGAGACCAUACUAUACAACCUACUACCGUCA | 0.00677 ± 0.0025 |
| GGAGACCUAUGAUAACAACCUACCACCUCA | 0.000204 ± 0.015 |
| GGAGACCAUACUAUACACCUACUACCUCA | 0.00694 ± 0.0042 |
| GGAGACGAUACAAUACUACCUACUACCUCA | 0.00238 ± 0.0021 |
| GGAGACCUAUCUAUACAUCCUACUACCACA | 0.00248 ± 0.0037 |
| GGAGACCUAUGAUAUGUUGGUACUUCCUCA | 0.000464 ± 0.0076 |
| GGAGACGAUAGCUAUACAACCUACUACCUCA | 0.0112 ± 0.0049 |
| GGAGAGGAUACUAUCCAACCUACUACCUCA | 0.00889 ± 0.004 |
| GGAGACCUAACUAUACAACCUACUAUCUCA | 0.0057 ± 0.003 |
| GGAGUGGAUACUAUACAACGUUCUACCUCA | 0.00461 ± 0.0022 |

In another format: entries from further up
Sequence,pre-steady-state target cleavage rate
GGAGACCAUACUAUACAACCUACUACCGUCA,0.00677 ± 0.0025
GGAGACCAUACUAUACACCUACUACCUCA,0.00694 ± 0.0042
